Source: publication PMC11263394
These are yes or no findings as the source states them, for the method shown. In cells and extracts the contact can be indirect. Some results given as binding are weak or reduced against the parent protein; the word gives no strength.

Target: T1, SLC40A1, also known as Ferroportin (FPN) (human (endogenous in U87R and GSCm01R)) (UniProt Q9NP59)
T1 sequence: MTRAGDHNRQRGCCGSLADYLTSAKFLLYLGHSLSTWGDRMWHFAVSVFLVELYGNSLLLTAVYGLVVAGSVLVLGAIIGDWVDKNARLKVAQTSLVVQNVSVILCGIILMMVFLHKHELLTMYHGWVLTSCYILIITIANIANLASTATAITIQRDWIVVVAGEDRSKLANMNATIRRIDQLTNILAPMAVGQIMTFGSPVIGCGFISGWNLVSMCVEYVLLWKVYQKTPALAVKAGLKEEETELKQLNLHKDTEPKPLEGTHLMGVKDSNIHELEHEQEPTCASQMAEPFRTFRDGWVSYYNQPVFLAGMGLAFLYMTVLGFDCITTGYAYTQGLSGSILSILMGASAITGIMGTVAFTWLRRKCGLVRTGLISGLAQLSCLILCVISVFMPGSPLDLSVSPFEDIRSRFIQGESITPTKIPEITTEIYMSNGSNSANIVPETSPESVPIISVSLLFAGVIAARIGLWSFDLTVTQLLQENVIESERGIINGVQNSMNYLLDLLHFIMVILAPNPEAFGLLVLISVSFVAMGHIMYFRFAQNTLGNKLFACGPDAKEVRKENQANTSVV
Assay: co-IP; U87R and GSCm01R cells lysed in IP lysis buffer with protease and phosphatase inhibitors; lysates incubated with antibody-coupled magnetic beads overnight at 4 °C (Pierce Classic Magnetic IP/Co-IP Kit); western blotting

binding: binds
B1: E3 ubiquitin ligase LRSAM1 (Leucine-rich repeat and sterile alpha motif-containing 1) (enzyme, UniProt Q6UWE0 1-723)
chain: MPLFFRKRKPSEEARKRLEYQMCLAKEAGADDILDISKCELSEIPFGAFATCKVLQKKVLIVHTNHLTSLLPKSCSLLSLATIKVLDLHDNQLTALPDDLGQLTALQVLNVERNQLMQLPRSIGNLTQLQTLNVKDNKLKELPDTVGELRSLRTLNISGNEIQRLPQMLAHVRTLEMLSLDASAMVYPPREVCGAGTAAILQFLCKESGLEYYPPSQYLLPILEQDGIENSRDSPDGPTDRFSREELEWQNRFSDYEKRKEQKMLEKLEFERRLELGQREHTQLLQQSSSQKDEILQTVKEEQSRLEQGLSEHQRHLNAERQRLQEQLKQTEQNISSRIQKLLQDNQRQKKSSEILKSLENERIRMEQLMSITQEETESLRRRDVASAMQQMLTESCKNRLIQMAYESQRQNLVQQACSSMAEMDERFQQILSWQQMDQNKAISQILQESAMQKAAFEALQVKKDLMHRQIRSQIKLIETELLQLTQLELKRKSLDTESLQEMISEQRWALSSLLQQLLKEKQQREEELREILTELEAKSETRQENYWLIQYQRLLNQKPLSLKLQEEGMERQLVALLEELSAEHYLPIFAHHRLSLDLLSQMSPGDLAKVGVSEAGLQHEILRRVQELLDAARIQPELKPPMGEVVTPTAPQEPPESVRPSAPPAELEVQASECVVCLEREAQMIFLNCGHVCCCQQCCQPLRTCPLCRQDIAQRLRIYHSS
